In PubChem BioAssay AID328 (DTP/NCI, 2004) one finds T/C data, which are given here for 10 compounds.

The list shows only some results of the screen, not a fair sample: it covers a few groups of compounds. Not every dose and run of a compound is shown. T/C is the treated group as % of the vehicle group. For survival time, this PubChem deposit counts one and a half times the control or more as active, and values a quarter to a half above the control carry no call in these data; other NCI protocols may use other cut-offs. Schedules are NCI's codes, read here as Q, the interval in days (D) or hours (H), X, the number of doses. Some T/C values are marked as having no survivor count here; that says nothing about deaths at the dose. Some entries were tested several times; the results are listed from low to high.

The subject of this assay is BDF1 mice, P388 leukemia ip, median survival T/C. In words: NCI In Vivo Anticancer Drug Screen. Data for tumor model P388 Leukemia (intraperitoneal) in B6D2F1 (BDF1) mice. The settings on record: T/C endpoint: median survival time, higher T/C = longer survival. As for the experimental part: The antitumor activity of compounds was measured in mice bearing transplantable tumors. Survival or tumor size were measured and the results are expressed as the measurement made in the treated group (T) divided by the measurement made in the vehicle treated control group (C). The tumor model used in this assay is P388 Leukemia (intraperitoneal) in B6D2F1 (BDF1) mice

Where [1] appears, read: dose: 1.17 mg/kg/injection, schedule: Q04DX003 (ip), vehicle: saline + alcohol.
[2] abbreviates: dose: 540.0 micrograms/kg/injection, schedule: Q04DX003 (ip), vehicle: other.
The mark [3] stands for this setting: dose: 900.0 micrograms/kg/injection, schedule: Q04DX003 (ip), vehicle: other.
Setting [4] is: dose: 5.0 mg/kg/injection, schedule: Q04DX002 (ip), vehicle: saline + alcohol.
The mark [5] stands for this setting: dose: 10.0 mg/kg/injection, schedule: Q04DX002 (ip), vehicle: saline + alcohol.
Where [6] appears, read: dose: 20.0 mg/kg/injection, schedule: Q04DX002 (ip), vehicle: saline + alcohol.
Where [7] appears, read: dose: 0.63 mg/kg/injection, schedule: Q01DX009 (ip), vehicle: Klucel (hydroxypropylcellulose) (HPC).
Where [8] appears, read: dose: 1.25 mg/kg/injection, schedule: Q01DX009 (ip), vehicle: Klucel (hydroxypropylcellulose) (HPC).

As to `CC1=C[C@H]2O[C@@H]3C[C@H]4OC(=O)/C=C\C=C\C(C(C)O)OCC[C@@H](C)[C@H](O)C(=O)OC[C@@]2(CC1)[C@]4(C)[C@]31CO1` (stereo partly specified), the T/C was 117 % of control [survivor count not shown] (dose: 0.04 mg/kg/injection, schedule: Q01DX009 (ip), vehicle: saline with Tween-80); 128 % of control [survivor count not shown] (dose: 0.08 mg/kg/injection, schedule: Q01DX009 (ip), vehicle: saline with Tween-80); 120 % of control [survivor count not shown] (dose: 0.15 mg/kg/injection, schedule: Q01DX009 (ip), vehicle: saline with Tween-80); 126 % of control [survivor count not shown] (dose: 0.32 mg/kg/injection, schedule: Q04DX003 (ip), vehicle: saline + alcohol); 100 % of control [survivor count not shown] (dose: 125.0 micrograms/kg/injection, schedule: Q04DX002 (ip), vehicle: saline + alcohol); 129 % of control [survivor count not shown] (dose: 130.0 micrograms/kg/injection, schedule: Q04DX003 (ip), vehicle: saline + alcohol). Besides, the T/C was 129 % of control [survivor count not shown] (dose: 216.0 micrograms/kg/injection, schedule: Q04DX003 (ip), vehicle: saline + alcohol); 105 % of control [survivor count not shown] (dose: 250.0 micrograms/kg/injection, schedule: Q04DX002 (ip), vehicle: saline + alcohol); 132 % of control [survivor count not shown] (dose: 360.0 micrograms/kg/injection, schedule: Q04DX003 (ip), vehicle: saline + alcohol); 121 % of control [survivor count not shown] (dose: 600.0 micrograms/kg/injection, schedule: Q04DX003 (ip), vehicle: saline + alcohol).
For `CC(=O)OCC12CC(O)C(C)=CC1OC1C(O)C(OC(C)=O)C2(C)C12CO2` (stereo unspecified), the T/C is, setting by setting: (dose: 0.31 mg/kg/injection, schedule: Q01DX009 (ip), vehicle: saline) 125 % of control [survivor count not shown]; (dose: 0.63 mg/kg/injection, schedule: Q01DX009 (ip), vehicle: saline) 150 % of control [survivor count not shown]; (dose: 1.25 mg/kg/injection, schedule: Q01DX009 (ip), vehicle: saline) 150 [survivor count not shown] and 213 % of control [survivor count not shown]; (dose: 2.5 mg/kg/injection, schedule: Q01DX009 (ip), vehicle: saline) 151 [survivor count not shown] and 216 % of control [survivor count not shown]; (dose: 5.0 mg/kg/injection, schedule: Q01DX009 (ip), vehicle: saline) 97 % of control [survivor count not shown].
Take `CC1=C[C@H]2O[C@@H]3C[C@H]4OC(=O)/C=C\C=C\C(C(C)O)OCC(O)C(C)CC(=O)OC[C@@]2(C[C@@H]1O)[C@]4(C)[C@@]31CO1` (stereo partly specified): the T/C is 107 % of control [survivor count not shown] under setting [1], 162 % of control [survivor count not shown] under setting [2] and 187 % of control [survivor count not shown] under setting [3].
Take `CC(=O)OCC12CCC(C)=CC1OC1C(O)C(O)C2(C)C12CO2` (stereo unspecified): the T/C (dose: 2.5 mg/kg/injection, schedule: Q04DX002 (ip), vehicle: saline + alcohol) was 135 % of control [survivor count not shown]; the T/C under setting [4] was 149 % of control [survivor count not shown]; the T/C under setting [5] is 162 % of control [survivor count not shown]; the T/C under setting [6] was 153 % of control [survivor count not shown].
`CC1=C[C@H]2O[C@@H]3C[C@H]4OC(=O)/C=C\C=C\[C@H]([C@@H](C)O)OC[C@H](O)[C@@]5(C)O[C@@H]5C(=O)OC[C@@]2(C[C@H]1O)[C@]4(C)C31CO1` (stereo partly specified): the T/C under setting [7] is 139 % of control [survivor count not shown]; the T/C under setting [8] was 150 % of control [survivor count not shown]; the T/C (dose: 2.5 mg/kg/injection, schedule: Q01DX009 (ip), vehicle: Klucel (hydroxypropylcellulose) (HPC)) is 161 % of control [survivor count not shown].
On to `CC1=CC2OC3CC4OC(=O)/C=C/C=C/C(C(C)O)OCC(O)C(C)CC(=O)OCC2(CC1O)C4(C)C31CO1` (stereo unspecified), for which the T/C reads like this: (dose: 0.31 mg/kg/injection, schedule: Q01DX009 (ip), vehicle: Klucel (hydroxypropylcellulose) (HPC)) 144 % of control [survivor count not shown]; under setting [7], 164 % of control [survivor count not shown]; under setting [1], 111 % of control [survivor count not shown]; under setting [8], 191 % of control [survivor count not shown]; under setting [2], 177 % of control [survivor count not shown]; under setting [3], 155 % of control [survivor count not shown].
For the compound `CC(=O)OCC12C(C=C(C)C(=O)C1O)OC1C(O)C(OC(C)=O)C2(C)C12CO2` (stereo unspecified), the T/C under setting [4] was 122 % of control [survivor count not shown].
`C[C@@H](O)[C@H]1/C=C/C=C\C(=O)O[C@@H]2C[C@H]3O[C@@H]4[C@@H]5OC5(C)CCC4(COC(=O)[C@H]4O[C@]4(C)[C@@H](O)CO1)[C@]2(C)[C@]31CO1` (stereo partly specified): the T/C reads like this: (dose: 1.17 mg/kg/injection, schedule: Q04DX003 (ip), vehicle: other) 136 % of control [survivor count not shown]; (dose: 1.94 mg/kg/injection, schedule: Q04DX003 (ip), vehicle: other) 118 % of control [survivor count not shown]; (dose: 1.94 mg/kg/injection, schedule: Q04DX003 (sc), vehicle: other) 127 % of control [survivor count not shown]; (dose: 2.59 mg/kg/injection, schedule: Q04DX003 (ip), vehicle: saline + alcohol) 184 % of control [survivor count not shown]; (dose: 3.24 mg/kg/injection, schedule: Q04DX003 (ip), vehicle: other) 136 [survivor count not shown] and 177 % of control [survivor count not shown]; (dose: 3.24 mg/kg/injection, schedule: Q04DX003 (sc), vehicle: other) 137 % of control [survivor count not shown]. The T/C (dose: 4.32 mg/kg/injection, schedule: Q04DX003 (ip), vehicle: saline + alcohol) is 203 % of control [survivor count not shown]; the T/C (dose: 5.4 mg/kg/injection, schedule: Q04DX003 (ip), vehicle: other) is 133 [survivor count not shown] and 189 % of control [survivor count not shown]; the T/C (dose: 5.4 mg/kg/injection, schedule: Q04DX003 (sc), vehicle: other) was 154 % of control [survivor count not shown]; the T/C (dose: 9.0 mg/kg/injection, schedule: Q04DX003 (ip), vehicle: other) was 136 [survivor count not shown] and 171 % of control [survivor count not shown]; the T/C (dose: 12.0 mg/kg/injection, schedule: Q04DX003 (ip), vehicle: saline + alcohol) was 194 % of control [survivor count not shown].
On to `CC(=O)OCC12C(C=C(C)C(=O)C1OC(C)=O)OC1C(OC(C)=O)C(OC(C)=O)C2(C)C12CO2` (stereo unspecified), for which the T/C by setting is: under setting [4], 89 % of control [survivor count not shown]; under setting [5], 109 % of control [survivor count not shown]; under setting [6], 100 % of control [survivor count not shown]; (dose: 40.0 mg/kg/injection, schedule: Q04DX002 (ip), vehicle: saline + alcohol) 100 % of control [survivor count not shown].
Regarding `C=C(C)C(=O)OCC12CCC(C)=CC1OC1C(=O)C(OC(=O)C(=C)C)C2(C)C12CO2` (stereo unspecified), the T/C runs as follows: (dose: 0.25 mg/kg/injection, schedule: Q01DX005 (ip), vehicle: water) 94 [survivor count not shown] and 95 % of control [survivor count not shown]; (dose: 0.5 mg/kg/injection, schedule: Q01DX005 (ip), vehicle: water) 101 [survivor count not shown] and 111 % of control [survivor count not shown]; (dose: 1.0 mg/kg/injection, schedule: Q01DX005 (ip), vehicle: water) 106 [survivor count not shown] and 113 % of control [survivor count not shown]; (dose: 2.0 mg/kg/injection, schedule: Q01DX005 (ip), vehicle: water) 117 [survivor count not shown] and 118 % of control [survivor count not shown].
